First the molecules themselves.
B1: protein plastid transcriptionally active 16 (protein, UniProt Q9STF2 20-510)
chain: FNRRKPRLTVWAKQTAFQLGKTKGDDDSEGKQKGKNPFQFDFGKLPDMKSLIPVVTNPSTGLVFGNNRKKDPGTIFVAGATGQAGIRIAQTLLQRGFSVRAGVPDLGAAQDLARVAATYKILSNDEVKRLNAVQSPFQDAESIAKAIGNATKVVVTVGATENGPDAQVSTSDALLVVQAAELAGVSHVAIVYDGTISGSTYNVLDGITSFFGNLFAKSQPLTISDLIEKVAQTDVAYTLIKTSLTEDFSPEKAYNVVVSAEGSNSGSGSSSSEAYKVPKLKIASLVADIFANTAVAENKVVEVSTDPSAPSRPVDELFSVIPEDGRRKVYADAIARERAEEEAKVAADKAREAAEAAKEFEKQMQKLSEKEAEAASLAEDAQQKADAVGVTVDGLFNKAKDISSGLSWNKLGSQFATAIQNASETPKVQVATVRGQAKARNLPPKKAVVKQRPSSPFASKPKEERPKKPEKEVRKVFGGLFKQETIYIDDD
B2: BGLU23 (PYK10, beta-O-glucosidase) (enzyme, UniProt Q9SR37 25-524)
chain: DGPVCPPSNKLSRASFPEGFLFGTATAAYQVEGAINETCRGPALWDIYCRRYPERCNNDNGDVAVDFFHRYKEDIQLMKNLNTDAFRMSIAWPRIFPHGRKEKGVSQAGVQFYHDLIDELIKNGITPFVTVFHWDTPQDLEDEYGGFLSERIVKDFREYADFVFQEYGGKVKHWITFNEPWVFSHAGYDVGKKAPGRCSSYVNAKCQDGRSGYEAYLVTHNLLISHAEAVEAYRKCEKCKGGKIGIAHSPAWFEAHDLADSQDGASIDRALDFILGWHLDTTTFGDYPQIMKDIVGHRLPKFTTEQKAKLKASTDFVGLNYYTSVFSNHLEKPDPSKPRWMQDSLITWESKNAQNYAIGSKPLTAALNVYSRGFRSLLKYIKDKYANPEIMIMENGYGEELGASDSVAVGTADHNRKYYLQRHLLSMQEAVCIDKVNVTGYFVWSLLDNFEWQDGYKNRFGLYYVDFKNNLTRYEKESGKYYKDFLSQGVRPSALKKDEL
B3: GDSL esterase/lipase ESM1 (protein, UniProt Q9LJG3 29-392)
chain: GEGVPNVALFTFGDSYYDAGNKVFLSQRKDLPQTYWPYGKSRDYPNGKFSDGHIVPDFIADFISIPNGVLPPVLKPGVDISRGVSFAVADASILGAPVESMTLNQQVVKFKNMKSNWNDSYIEKSLFMIYIGTEDYLNFTKANPNADASAQQAFVTNVINRLKNDIKLLYSLGASKFVVQLLAPLGCLPIVRQEYKTGNECYELLNDLAKQHNGKIGPMLNEFAKISTSPYGFQFTVFDFYNAVLRRIATGRSLNYRFFVTNTSCCGVGTHNAYGCGKGNVHSKLCEYQRSYFFFDGRHNTEKAQEEMAHLLYGADPDVVQPMTVRELIVYPTGETMREYWEPNNLAIRRRPSRDFYLGLAAYY

Sequences of proteins named here, by UniProt entry; tags and fusion partners are left off. A change or cut given only in a name is not applied to a line headed by its entry. Residues count along the entry.
UniProt Q9SA16: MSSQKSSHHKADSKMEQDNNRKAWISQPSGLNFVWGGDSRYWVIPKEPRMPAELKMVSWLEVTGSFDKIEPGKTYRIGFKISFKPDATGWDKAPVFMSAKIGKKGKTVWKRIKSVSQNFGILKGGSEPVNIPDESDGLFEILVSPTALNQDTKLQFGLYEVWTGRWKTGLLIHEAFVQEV
UniProt P37702, residues 20-541: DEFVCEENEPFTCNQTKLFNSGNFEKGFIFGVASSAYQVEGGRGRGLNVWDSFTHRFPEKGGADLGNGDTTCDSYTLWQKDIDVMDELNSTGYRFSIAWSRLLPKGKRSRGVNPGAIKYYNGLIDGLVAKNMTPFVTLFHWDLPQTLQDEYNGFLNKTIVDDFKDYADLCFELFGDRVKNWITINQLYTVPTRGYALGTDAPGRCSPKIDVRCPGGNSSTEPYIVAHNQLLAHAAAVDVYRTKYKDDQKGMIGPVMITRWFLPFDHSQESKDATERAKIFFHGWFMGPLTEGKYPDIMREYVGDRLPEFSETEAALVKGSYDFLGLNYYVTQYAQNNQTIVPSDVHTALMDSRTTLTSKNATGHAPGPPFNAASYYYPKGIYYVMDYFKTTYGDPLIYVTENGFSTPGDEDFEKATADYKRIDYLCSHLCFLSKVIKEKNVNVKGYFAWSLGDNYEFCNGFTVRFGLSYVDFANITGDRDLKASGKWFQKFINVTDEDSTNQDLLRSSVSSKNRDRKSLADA

No constants are given. Whether binding was seen depends on the method and setting. In cells and extracts the contact can be indirect. A yes stands for co-enrichment or nearness to the bait. Other partners may have been found. Tags and fused reporters may be left off the sequences shown.

This assay deals with C-terminally His6-tagged AN4 (ArathNictaba4) (A. thaliana) (UniProt Q9SA16). The assay can be described thus: affinity purification with mass spectrometry; AN4-HIS from the soluble fraction of IPTG-induced E. coli held on Ni-agarose beads (bait), washed with PB, 1 M NaCl, 50 and 75 mM imidazole, pH 8.0; incubated 30-35 min at 4°C with extract of 16-day-old Arabidopsis plants, untreated or treated with 150 mM NaCl for 5 h (prey; extraction buffer 1 x PB, 1 M NaCl, 25 mM imidazole, 10% glycerol, 0.1% Tween-20, 1% beta-mercaptoethanol, pH 8.0); compared with beads loaded from a non-induced E. coli culture; on-bead trypsin, Q Exactive HF, MaxQuant and Perseus; only the target purified.
Turning to “TGG1 (myrosinase 1, thioglucoside glucohydrolase) (from UniProt P37702 20-541) (enzyme)”, the binding entry is given as “binds”.
Then B1, with “binds”.
For the molecule B2, the binding result is reported as “binds”.
Then B3, with “binds”.

Values taken from publication PMC5767604.
